# The supplement of paper PMC8728848
# The list shows a part of the results.
# Key:
# Assay in all cases: glycan array binding signal (z-score within array); higher = stronger binding
# Details in all cases: glycan notation: IUPAC condensed, linker removed
# GlcNAc(b1-3)Gal(b1-4)Glc = molecular target: GlcNAc(b1-3)Gal(b1-4)Glc
# Procedure, shortened: (§1)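 The Consortium for Functional Glycomics database supplied 3228 glycan arrays, of which those lacking an available protein sequence were dropped. The binding signal, a within-array Z-score, was averaged across arrays of the same protein sequence and across linkers. Negative scores can be read as non-binding.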
# [1] = molecular target: GlcNAc(b1-3)Gal(b1-4)GlcNAc
# Procedure, shortened: as §1
# [2] = molecular target: GlcNAc(b1-3)Gal(b1-4)GlcNAc(b1-2)Man(a1-3)[GlcNAc(b1-3)Gal(b1-4)GlcNAc(b1-2)Man(a1-6)]Man(b1-4)GlcNAc(b1-4)GlcNAc
# Procedure, shortened: as §1
# [3] = molecular target: GlcNAc(b1-3)Gal(b1-4)GlcNAc(b1-2)Man(a1-3)[GlcNAc(b1-3)Gal(b1-4)GlcNAc(b1-2)Man(a1-6)]Man(b1-4)GlcNAc(b1-4)[Fuc(a1-6)]GlcNAc
# Procedure, shortened: as §1
# [4] = molecular target: GlcNAc(b1-3)Gal(b1-4)GlcNAc(b1-2)[GlcNAc(b1-3)Gal(b1-4)GlcNAc(b1-6)]Man(a1-6)[GlcNAc(b1-3)Gal(b1-4)GlcNAc(b1-2)Man(a1-3)]Man(b1-4)GlcNAc(b1-4)GlcNAc
# Procedure, shortened: as §1
# [5] = molecular target: GlcNAc(b1-3)Gal(b1-4)GlcNAc(b1-3)Gal(b1-4)GlcNAc
# Procedure, shortened: as §1
# [6] = molecular target: GlcNAc(b1-3)Gal(b1-4)GlcNAc(b1-3)Gal(b1-4)GlcNAc(b1-2)Man(a1-3)[GlcNAc(b1-3)Gal(b1-4)GlcNAc(b1-3)Gal(b1-4)GlcNAc(b1-2)Man(a1-6)]Man(b1-4)GlcNAc(b1-4)GlcNAc
# Procedure, shortened: as §1
# [7] = molecular target: GlcNAc(b1-3)Gal(b1-4)GlcNAc(b1-3)Gal(b1-4)GlcNAc(b1-2)Man(a1-3)[GlcNAc(b1-3)Gal(b1-4)GlcNAc(b1-3)Gal(b1-4)GlcNAc(b1-2)Man(a1-6)]Man(b1-4)GlcNAc(b1-4)[Fuc(a1-6)]GlcNAc
# Procedure, shortened: as §1
# [8] = molecular target: GlcNAc(b1-3)Gal(b1-4)GlcNAc(b1-3)Gal(b1-4)GlcNAc(b1-2)[GlcNAc(b1-3)Gal(b1-4)GlcNAc(b1-3)Gal(b1-4)GlcNAc(b1-6)]Man(a1-6)[GlcNAc(b1-3)Gal(b1-4)GlcNAc(b1-3)Gal(b1-4)GlcNAc(b1-2)Man(a1-3)]Man(b1-4)GlcNAc(b1-4)[Fuc(a1-6)]GlcNAc
# Procedure, shortened: as §1
# [9] = molecular target: GlcNAc(b1-3)Gal(b1-4)GlcNAc(b1-3)Gal(b1-4)GlcNAc(b1-3)Gal(b1-4)GlcNAc(b1-2)Man(a1-3)[GlcNAc(b1-3)Gal(b1-4)GlcNAc(b1-3)Gal(b1-4)GlcNAc(b1-3)Gal(b1-4)GlcNAc(b1-2)Man(a1-6)]Man(b1-4)GlcNAc(b1-4)GlcNAc
# Procedure, shortened: as §1
# [10] = molecular target: GlcNAc(b1-3)Gal(b1-4)GlcNAc(b1-3)Gal(b1-4)GlcNAc(b1-3)Gal(b1-4)GlcNAc(b1-2)Man(a1-3)[GlcNAc(b1-3)Gal(b1-4)GlcNAc(b1-3)Gal(b1-4)GlcNAc(b1-3)Gal(b1-4)GlcNAc(b1-2)Man(a1-6)]Man(b1-4)GlcNAc(b1-4)[Fuc(a1-6)]GlcNAc
# Procedure, shortened: as §1
# [11] = molecular target: GlcNAc(b1-3)Gal(b1-4)GlcNAc(b1-3)Gal(b1-4)GlcNAc(b1-3)Gal(b1-4)GlcNAc(b1-2)[GlcNAc(b1-3)Gal(b1-4)GlcNAc(b1-3)Gal(b1-4)GlcNAc(b1-3)Gal(b1-4)GlcNAc(b1-6)]Man(a1-6)[GlcNAc(b1-3)Gal(b1-4)GlcNAc(b1-3)Gal(b1-4)GlcNAc(b1-3)Gal(b1-4)GlcNAc(b1-2)Man(a1-3)]Man(b1-4)GlcNAc(b1-4)[Fuc(a1-6)]GlcNAc
# Procedure, shortened: as §1
# [12] = molecular target: GlcNAc(b1-3)Gal(b1-4)GlcNAc(b1-3)Gal(b1-4)GlcNAc(b1-3)Gal(b1-4)GlcNAc(b1-3)Gal(b1-4)GlcNAc(b1-2)Man(a1-3)[GlcNAc(b1-3)Gal(b1-4)GlcNAc(b1-3)Gal(b1-4)GlcNAc(b1-3)Gal(b1-4)GlcNAc(b1-3)Gal(b1-4)GlcNAc(b1-2)Man(a1-6)]Man(b1-4)GlcNAc(b1-4)GlcNAc
# Procedure, shortened: as §1
# [13] = molecular target: GlcNAc(b1-3)Gal(b1-4)GlcNAc(b1-3)Gal(b1-4)GlcNAc(b1-3)Gal(b1-4)GlcNAc(b1-3)Gal(b1-4)GlcNAc(b1-2)Man(a1-3)[GlcNAc(b1-3)Gal(b1-4)GlcNAc(b1-3)Gal(b1-4)GlcNAc(b1-3)Gal(b1-4)GlcNAc(b1-3)Gal(b1-4)GlcNAc(b1-2)Man(a1-6)]Man(b1-4)GlcNAc(b1-4)[Fuc(a1-6)]GlcNAc
# Procedure, shortened: as §1
# [14] = molecular target: GlcNAc(b1-3)Gal(b1-4)GlcNAc(b1-3)Gal(b1-4)GlcNAc(b1-3)Gal(b1-4)GlcNAc(b1-3)Gal(b1-4)GlcNAc(b1-2)[GlcNAc(b1-3)Gal(b1-4)GlcNAc(b1-3)Gal(b1-4)GlcNAc(b1-3)Gal(b1-4)GlcNAc(b1-3)Gal(b1-4)GlcNAc(b1-6)]Man(a1-6)[GlcNAc(b1-3)Gal(b1-4)GlcNAc(b1-3)Gal(b1-4)GlcNAc(b1-3)Gal(b1-4)GlcNAc(b1-3)Gal(b1-4)GlcNAc(b1-2)Man(a1-3)]Man(b1-4)GlcNAc(b1-4)[Fuc(a1-6)]GlcNAc
# Procedure, shortened: as §1
# [15] = molecular target: GlcNAc(b1-3)Gal(b1-4)GlcNAc(b1-3)Gal(b1-4)GlcNAc(b1-3)GalNAc
# Procedure, shortened: as §1
# [16] = molecular target: GlcNAc(b1-3)Gal(b1-4)GlcNAc(b1-3)GalNAc
# Procedure, shortened: as §1
# [17] = molecular target: GlcNAc(b1-3)Gal(b1-4)GlcNAc(b1-3)[GlcNAc(b1-3)Gal(b1-4)GlcNAc(b1-3)]GalNAc
# Procedure, shortened: as §1
# [18] = molecular target: GlcNAc(b1-3)Gal(b1-4)GlcNAc(b1-6)[Gal(b1-3)]GalNAc
# Procedure, shortened: as §1
# [19] = molecular target: GlcNAc(b1-3)Gal(b1-4)GlcNAc(b1-6)[GlcNAc(b1-3)Gal(b1-3)]GalNAc
# Procedure, shortened: as §1
# [20] = molecular target: GlcNAc(b1-3)Gal(b1-4)GlcNAc(b1-6)[GlcNAc(b1-3)]Gal(b1-4)GlcNAc
# Procedure, shortened: as §1
# GlcNAc(b1-3)GalNAc = molecular target: GlcNAc(b1-3)GalNAc
# Procedure, shortened: as §1
# GlcNAc(b1-3)Man = molecular target: GlcNAc(b1-3)Man
# Procedure, shortened: as §1
# [21] = molecular target: GlcNAc(b1-3)[GlcNAc(b1-4)][GlcNAc(b1-6)]GlcNAc
# Procedure, shortened: as §1
# [22] = molecular target: GlcNAc(b1-3)[GlcNAc(b1-6)]Gal(b1-4)GlcNAc
# Procedure, shortened: as §1
# [23] = molecular target: GlcNAc(b1-3)[GlcNAc(b1-6)]GalNAc
# Procedure, shortened: as §1
# [24] = molecular target: GlcNAc(b1-4)Gal(b1-4)GlcNAc
# Procedure, shortened: as §1
# GlcNAc(b1-4)GlcNAc = molecular target: GlcNAc(b1-4)GlcNAc
# Procedure, shortened: as §1
# [25] = molecular target: GlcNAc(b1-4)GlcNAc(b1-4)GlcNAc
# Procedure, shortened: as §1
# [26] = molecular target: GlcNAc(b1-4)GlcNAc(b1-4)GlcNAc(b1-4)GlcNAc(b1-4)GlcNAc
# Procedure, shortened: as §1
# [27] = molecular target: GlcNAc(b1-4)GlcNAc(b1-4)GlcNAc(b1-4)GlcNAc(b1-4)GlcNAc(b1-4)GlcNAc
# Procedure, shortened: as §1
# [28] = molecular target: GlcNAc(b1-4)[GlcNAc(b1-6)]GalNAc
# Procedure, shortened: as §1
# [29] = molecular target: GlcNAc(b1-6)Gal(b1-4)GlcNAc
# Procedure, shortened: as §1
# GlcNAc(b1-6)GalNAc = molecular target: GlcNAc(b1-6)GalNAc
# Procedure, shortened: as §1
# [30] = molecular target: GlcNAc6S(b1-3)Gal(b1-4)GlcNAc
# Procedure, shortened: as §1
# Kdn(a2-3)Gal(b1-3)GalNAc = molecular target: Kdn(a2-3)Gal(b1-3)GalNAc
# Procedure, shortened: as §1
# Kdn(a2-3)Gal(b1-3)GlcNAc = molecular target: Kdn(a2-3)Gal(b1-3)GlcNAc
# Procedure, shortened: as §1
binder,measurement,setting,value
PX14343I-pdi-501-30-501 (Parabacteroides distasonis) (protein) SDQYSTETFWKTKEHASAGIMGCYNALKLWRSLHTMEFDMLTANAMPYNEANGTQAIGKGEHLSTTALIGSLWKNCYVGIGRTNTFIANVGGVDMDESEKAKMVGEAKFLRAFYYLSLVDKFGGVPLIIDAPNADEQAELPRNSKEEVVNQIVKDLEEAAAVLPDTYASSDLGRATKGAALALKARTLLYNSRWAEAAQAAKQVMESGVYQLFNDYRHFFSEDNKYNCEVIFDIEAKLPEYPTDYDQNIWRLNRPAPLKELVDTYLCVDGKTIEESPLYDPTRPYENRDPRLLKSIVCIGYPYLGKTITKEDVATTGFGVKKYTSYEDDVTIPLVERSAFNFILIRYAEVLLTYAEAQNEASGPDQSVYDAINQLRRRPDINMPEVPKGLTKDQMREVIRRERRIELTFEGLYYSDILRWKTAEKENNGMMHNYEGIEVVKRSFNPKRDYLWPIPYNQTVLNPNLEQNPNWD,glycan array binding signal (z-score),GlcNAc(b1-3)Gal(b1-4)Glc,-0.466
same,glycan array binding signal (z-score),[1],-0.649
same,glycan array binding signal (z-score),[2],-0.138
same,glycan array binding signal (z-score),[3],4.66
same,glycan array binding signal (z-score),[4],0.557
same,glycan array binding signal (z-score),[5],-0.615
same,glycan array binding signal (z-score),[6],1.15
same,glycan array binding signal (z-score),[7],1.31
same,glycan array binding signal (z-score),[8],1.77
same,glycan array binding signal (z-score),[9],0.959
same,glycan array binding signal (z-score),[10],0.231
same,glycan array binding signal (z-score),[11],0.975
same,glycan array binding signal (z-score),[12],0.48
same,glycan array binding signal (z-score),[13],1.23
same,glycan array binding signal (z-score),[14],0.812
same,glycan array binding signal (z-score),[15],-0.294
same,glycan array binding signal (z-score),[16],-0.574
same,glycan array binding signal (z-score),[17],-0.357
same,glycan array binding signal (z-score),[18],-0.576
same,glycan array binding signal (z-score),[19],0.015
same,glycan array binding signal (z-score),[20],-0.401
same,glycan array binding signal (z-score),GlcNAc(b1-3)GalNAc,-0.701
same,glycan array binding signal (z-score),GlcNAc(b1-3)Man,-0.136
same,glycan array binding signal (z-score),[21],0.101
same,glycan array binding signal (z-score),[22],-0.551
same,glycan array binding signal (z-score),[23],0.395
same,glycan array binding signal (z-score),[24],-0.114
same,glycan array binding signal (z-score),GlcNAc(b1-4)GlcNAc,-0.757
same,glycan array binding signal (z-score),[25],-0.204
same,glycan array binding signal (z-score),[26],-0.163
same,glycan array binding signal (z-score),[27],0.162
same,glycan array binding signal (z-score),[28],1.25
same,glycan array binding signal (z-score),[29],-0.84
same,glycan array binding signal (z-score),GlcNAc(b1-6)GalNAc,-0.084
same,glycan array binding signal (z-score),[30],-0.071
same,glycan array binding signal (z-score),Kdn(a2-3)Gal(b1-3)GalNAc,0.874
same,glycan array binding signal (z-score),Kdn(a2-3)Gal(b1-3)GlcNAc,0.694

# Part of the list above, reformatted:
binder	measurement	setting	value
PX14343I-pdi-501-30-501 (Parabacteroides distasonis) (protein) SDQYSTETFWKTKEHASAGIMGCYNALKLWRSLHTMEFDMLTANAMPYNEANGTQAIGKGEHLSTTALIGSLWKNCYVGIGRTNTFIANVGGVDMDESEKAKMVGEAKFLRAFYYLSLVDKFGGVPLIIDAPNADEQAELPRNSKEEVVNQIVKDLEEAAAVLPDTYASSDLGRATKGAALALKARTLLYNSRWAEAAQAAKQVMESGVYQLFNDYRHFFSEDNKYNCEVIFDIEAKLPEYPTDYDQNIWRLNRPAPLKELVDTYLCVDGKTIEESPLYDPTRPYENRDPRLLKSIVCIGYPYLGKTITKEDVATTGFGVKKYTSYEDDVTIPLVERSAFNFILIRYAEVLLTYAEAQNEASGPDQSVYDAINQLRRRPDINMPEVPKGLTKDQMREVIRRERRIELTFEGLYYSDILRWKTAEKENNGMMHNYEGIEVVKRSFNPKRDYLWPIPYNQTVLNPNLEQNPNWD	glycan array binding signal (z-score)	[11]	0.975
same	glycan array binding signal (z-score)	[12]	0.48
same	glycan array binding signal (z-score)	[13]	1.23
